Results are given in words; binding and its absence hold for the method and conditions named.
Key:
Test in all cases: 1D 1H NMR at increasing sample concentrations; 1H 1D spectra of each Tudor domain in its NMR buffer at increasing concentrations (typically 0.1–0.5 mM); amide region checked for concentration-dependent aggregation; NusG/RfaH: 25 mM HEPES pH 7.5, 50 mM NaCl; SMN: 25 mM potassium phosphate pH 6.8, 20 mM NaCl, 2 mM DTT; both purified
[1] = molecular target: SMN Tudor domain (82–147) (UniProt Q16637)
[2] = molecular target: NusG Tudor domain (123–181) (UniProt P0AFG0)
[3] = molecular target: RfaH Tudor domain (101–162) (UniProt P0AFW0)

Sequences of proteins named here, by UniProt entry; tags and fusion partners are left off. Residues count along the entry.
UniProt Q16637, residues 82-147: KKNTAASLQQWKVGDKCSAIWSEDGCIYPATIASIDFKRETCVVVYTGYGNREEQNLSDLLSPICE
UniProt P0AFG0, residues 123-181: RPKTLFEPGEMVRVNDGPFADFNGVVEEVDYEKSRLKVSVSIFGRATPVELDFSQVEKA

## SMN Tudor domain (82–147) (from UniProt Q16637 82-147) (domain or fragment)
[1]
  binding: no binding (tested: ∼500 μM)

## NusG Tudor domain (123–181) (from UniProt P0AFG0 123-181) (domain or fragment)
[2]
  binding: no binding (tested: ∼500 μM)

B1: RfaH Tudor domain (101–162) (domain or fragment, UniProt P0AFW0 101-162)
chain: PKDIVDPATPYPGDKVIITEGAFEGFQAIFTEPDGEARSMLLLNLINKEIKHSVKNTEFRKL
[3]
  binding: no binding (tested: ∼500 μM)

Source: publication PMC8567434
